Results on 40 molecules are retold here after the supplement of paper PMC8256030.

Values joined by “and” are separate entries in the source; they are usually repeats but may differ in a detail not shown here. Equal entries are not always repeated. The list shows a part of the results. Repeats in this data set agree poorly, so a single value says little.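 HEK293T cells were given each compound shortly before transfection with a reporter in which red mCherry is followed by the SARS-CoV-2 frameshift element and then GFP in the −1 frame, so GFP appears only after frameshifting.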

For the assay, the system named is SARS-CoV-2 -1 PRF reporter mCherry-FSE-GFP(-1). The experiment in a line: mCherry (red) intensity as percent of control; higher = higher upstream reporter expression. Particulars: 10 µM; 24 h; HEK293T.
`COc1cc(C(C)=O)ccc1OCCCN1CCC(c2noc3cc(F)ccc23)CC1` [iloperidone]: the mCherry is 83.8%.

In turn, `C1CCC(C(CC2CCCCN2)C2CCCCC2)CC1` (stereo not given) [perhexiline] had a mCherry of 130%.

`C=CC[C@@H]1/C=C(\C)C[C@H](C)C[C@H](OC)[C@H]2O[C@@](O)(C(=O)C(=O)N3CCCC[C@H]3C(=O)O[C@H](/C(C)=C/[C@@H]3CC[C@@H](O)[C@H](OC)C3)[C@H](C)[C@@H](O)CC1=O)[C@H](C)C[C@@H]2OC` yielded a mCherry of 133%.

In the case of `CN1CCC(CN2c3ccccc3Sc3ccccc32)C1` (stereo not given) [methdilazine], the mCherry turned out to be 68.8%.

`CC(C)OC(=O)c1cc2c(OCC(O)CNC(C)(C)C)cccc2[nH]1` (stereo not given) [carpindolol] registered a mCherry of 102%.

`CC(N)C(=O)OC(C)(C)Cc1ccc(Cl)cc1` (stereo not given) [alaproclate]: the mCherry turned out to be 123%.

As for `C=C1[C@H](CO)[C@@H](O)C[C@@H]1n1cnc2c(=O)[nH]c(N)nc21` [Baraclude], the mCherry is 101%.

`CCOC(=O)[C@H](CCc1ccccc1)N[C@@H](C)C(=O)N1Cc2cc(OC)c(OC)cc2C[C@H]1C(=O)O` [moexipril]: the mCherry was 130%.

`CCCn1c(=O)c(CCCOC(=O)NC)nc2ccccc21` [bamaquimast]: the mCherry was determined as 101%.

The molecule `COc1cc2c(c(OC)c1OC)-c1c(cc3c(c1OC)OCO3)C[C@H](C)[C@@](C)(O)C2` [besigomsin] gave a mCherry of 100%.

On to `Oc1ccc(Cl)c2cccnc12` [cloxiquine], for which the mCherry was 112%.

Take `CS(=O)(=O)c1cc(C2(NC(=O)c3cncc4c3cnn4-c3ccc(F)cc3)CC2)ccn1`: the mCherry amounted to 49.8%.

`N[C@@H](CC(=O)N1CCn2c(nnc2C(F)(F)F)C1)Cc1cc(F)c(F)cc1F` [sitagliptin]: the mCherry worked out at 103%.

In turn, `COc1nc(N)nc2c1ncn2[C@@H]1O[C@H](CO)[C@@H](O)[C@@H]1O` [nelarabine] came in with a mCherry of 103%.

Take `O=C1[C@H](CC[C@H](O)c2ccc(F)cc2)[C@@H](c2ccc(O)cc2)N1c1ccc(F)cc1` [ezetimibe]: the mCherry was determined as 100%.

As for `O=C(O)c1cn(-c2ccc(F)cc2)c2cc(N3CCNCC3)c(F)cc2c1=O` [sarafloxacin], the mCherry is 127% and 104%.

For `O=P(O)(O)C(O)(Cn1ccnc1)P(=O)(O)O` [Zoledronic acid], the mCherry was 110%.

Consider `CCCCCCc1ccc(O)cc1O.Nc1c2ccccc2nc2ccccc12` [acrisorcin], for which the mCherry is 15.3%.

Regarding `COc1ccc(-c2[nH]c3ccccc3c2-c2ccc(OC)cc2)cc1` [indoxole], the mCherry was 60.9%.

Molecule `CC[C@H]1OC(=O)C[C@@H](O)[C@H](C)[C@@H](O[C@@H]2O[C@H](C)[C@@H](O[C@H]3C[C@@](C)(O)[C@@H](O)[C@H](C)O3)[C@H](N(C)C)[C@H]2O)[C@@H](CC=O)C[C@@H](C)C(=O)/C=C/C(C)=C/[C@@H]1CO[C@@H]1O[C@H](C)[C@@H](O)[C@@H](OC)[C@H]1OC` registered a mCherry of 132%.

Regarding `NC[C@@H]1O[C@H](O[C@H]2[C@@H](O)[C@H](O[C@@H]3[C@@H](O)[C@H](N)C[C@H](N)[C@H]3O[C@H]3O[C@H](CN)[C@@H](O)[C@H](O)[C@H]3N)O[C@@H]2CO)[C@H](N)[C@@H](O)[C@@H]1O` [neomycin], the mCherry is 98.8%.

For `O=C1OCCN1/N=C/c1ccc([N+](=O)[O-])o1` [furazolidone], the mCherry was 94.7%.

`COc1ccc2[nH]cc(CCNC(C)=O)c2c1` [Melatonin] gave a mCherry of 69%.

`CC(c1ccccc1)C1Nc2cc(Cl)c(S(N)(=O)=O)cc2S(=O)(=O)N1` (stereo not given) [bemetizide] had a mCherry of 74.9%.

In the case of `CCc1cc2c(cc1CC)CC(NC[C@H](O)c1ccc(O)c3[nH]c(=O)ccc13)C2` [Indacaterol], the mCherry was found to be 104%.

Molecule `CNC(=S)C1(c2ccccn2)CCCS1` (stereo not given) [picartamide] returned a mCherry of 98.9%.

As to `C=C1/C(=C\C=C2/CCC[C@]3(C)[C@@H]([C@H](C)OCCC(C)(C)O)CC[C@@H]23)C[C@@H](O)C[C@@H]1O` [maxacalcitol], the mCherry stood at 86.5%.

In turn, `COc1ccc2cc([C@H](C)C(=O)O)ccc2c1` yielded a mCherry of 124%.

Consider `CNCCCN1c2ccccc2CCc2ccccc21` [desipramine], for which the mCherry is 125%.

Turning to `CO[C@H]1C[C@H](O[C@@H]2/C(C)=C\C[C@@H]3C[C@@H](C[C@]4(C=C[C@H](C)[C@@H](C(C)C)O4)O3)OC(=O)[C@@H]3C=C(C)[C@@H](O)[C@H]4OC/C(=C/C=C\[C@@H]2C)[C@]43O)O[C@@H](C)[C@H]1O[C@H]1C[C@@H](OC)[C@H](NC(C)=O)[C@H](C)O1`, the mCherry was determined as 101%.

In turn, `O=c1[nH]c2ccccc2n1CCN1CCN(c2cccc(C(F)(F)F)c2)CC1` [flibanserin] gave a mCherry of 117%.

With `O=C(N[C@H]1CCS[C@H]2CCC[C@@H](C(=O)O)N2C1=O)[C@@H](S)Cc1ccccc1` [omapatrilat], the mCherry came to 92.3%.

In turn, `CC(C)(C)CC(C)(C)c1ccc(OCCO)cc1` [octoxinol] showed a mCherry of 67.4%.

For the molecule `C=C[C@H]1CN2CC[C@H]1C[C@H]2[C@H](O)c1ccnc2ccc(OC)cc12`, the mCherry is 112% and 106%.

In turn, `CCCn1c(=O)[nH]c(=O)c2nc[nH]c21` [enprofylline] showed a mCherry of 78.9%.

For the molecule `CCCc1cc(=O)[nH]c(=S)[nH]1` [propylthiouracil], the mCherry was 86.3%.

Consider `C[C@](N)(Cc1ccc(O)cc1)C(=O)O` [metirosine], for which the mCherry was determined as 129%.

Turning to `CN[C@H](C(=O)N[C@H](C(=O)N(C)[C@H](/C=C(\C)C(=O)O)C(C)C)C(C)(C)C)C(C)(C)c1ccccc1` [taltobulin], the mCherry turned out to be 94.4%.

As to `O=C(O)Cn1c(C(=O)Nc2nc(-c3ccccc3Cl)cs2)cc2ccccc21` [lintitript], the mCherry came to 134%.

For the molecule `CN1C2CCCC1CC(NC(=O)c1nn(C)c3ccccc13)C2` (stereo not given) [Granisetron], the mCherry is 96.9%.
